Reference: PubChem BioAssay AID540276 (National Center for Advancing Translational Sciences (NCATS), 2011)
“And” between values parts separate entries of the source, which are not always exact repeats. Equal values may be shown once. The whole screen tested about 300,000 compounds, of which about 5,400 (1.8%) were called active. This list was built around the results that the source calls inconclusive (neither active nor inactive); the mix of calls is not that of the screen. The call rests on the fitted dose curve; tested in HEK293 cells. Potencies of inconclusive entries are doubtful fits and often do not repeat.

experiment: qHTS for inhibitors of binding or entry into cells for Marburg Virus; conditions: Marburg virus pseudotyped entry inhibition, cell reporter; series mostly up to 37.8 µM
Potency means the concentration at half of the fitted maximal effect.

**Q.** For `COc1ccc(S(=O)(=O)NC2CC(C)(C)NC(C)(C)C2)cc1C(C)C`, which Potency is on record?
**A.** inconclusive: 22.4 µM [inhibitor, single point]

**Q.** Which Potency does the source give for `COc1ccc(NS(=O)(=O)c2ccc(O)c(NC(=O)c3ccc(S(=O)(=O)N4CCCCCC4)cc3)c2)cc1` here?
**A.** inconclusive: 17.8 µM [inhibitor, partial curve, poor fit]

**Q.** Which Potency does the source give for `COc1ccc(N(C(=O)c2ccco2)S(=O)(=O)c2cccs2)cc1` here?
**A.** inactive

**Q.** With `CCCCN(CCCC)C(=S)N/N=C/c1c(C)[nH]n(-c2ccccc2)c1=O` as the compound, how does the Potency read?
**A.** inconclusive: 15.8 µM [inhibitor, single point]

**Q.** Which Potency does the source give for `O=C(COc1ccccc1Cl)Nc1ccccc1C(=O)NC1CC1` here?
**A.** inconclusive: 22.4 µM [activator, partial curve, poor fit]

**Q.** For `O=S(=O)(NC1CCCC1)c1ccc(S(=O)(=O)N(Cc2cccs2)CC2CCCO2)cc1` (stereo unspecified), which Potency is on record?
**A.** inconclusive: 23.1 µM [inhibitor, partial curve, poor fit]

**Q.** For `COc1ccc(C(CNC(=O)C(CCSC)NC(=O)c2ccccc2Cl)N2CCCCC2)cc1` (stereo unspecified), which Potency is on record?
**A.** inconclusive: 11.2 µM [inhibitor, partial curve, poor fit]

**Q.** With `COC(=O)c1sc(N2C(=O)c3oc4cc(C)c(C)cc4c(=O)c3C2c2ccccc2F)nc1C` (stereo unspecified) as the compound, how does the Potency read?
**A.** inconclusive: 3.98 µM [inhibitor, single point]

**Q.** With `O=C1NC(=O)/C(=C/c2ccc(O)cc2)S1` as the compound, how does the Potency read?
**A.** inactive

**Q.** For `CCCN1C(=O)c2[nH]nc(-c3ccc(OC)cc3)c2C1c1ccccn1` (stereo unspecified), which Potency is on record?
**A.** inactive

**Q.** Which Potency does the source give for `COc1ccc(-c2csc(NC(=O)CCn3cnc4ccccc4c3=O)n2)cc1OC` here?
**A.** inconclusive: 29.1 µM [inhibitor, single point]

**Q.** For `CC(C)(C)c1nnc(NC(=O)NS(=O)(=O)c2ccccc2)s1`, which Potency is on record?
**A.** inconclusive: 3.16 µM [inhibitor, single point]

**Q.** For `CC(OC(=O)c1ccc(Cl)c(S(=O)(=O)N2CCOCC2)c1)C(=O)NC1CCCCC1C` (stereo unspecified), which Potency is on record?
**A.** inactive

**Q.** With `Cc1cc(C)cc(-n2ncc3c2CCCC3NC(=O)c2cc(C)oc2C)c1` (stereo unspecified) as the compound, how does the Potency read?
**A.** inconclusive: 14.1 µM [inhibitor, single point]

**Q.** Which Potency does the source give for `CC(C)(C)/C(O)=C(/C#N)c1nc2ccccc2[nH]1` here?
**A.** inactive

**Q.** With `COc1cccc(-c2nn(C)c3sc(C(=O)NCCCN(C)Cc4ccccc4)cc23)c1` as the compound, how does the Potency read?
**A.** inconclusive: 15.8 µM [inhibitor, single point]

**Q.** With `Cc1ccc(C(C(=O)NC2CCCC2)N(C(=O)CNC(=O)c2ccco2)c2ccccc2)o1` (stereo unspecified) as the compound, how does the Potency read?
**A.** inactive

**Q.** For `COc1cc2c(cc1OC)[C@@H]1O[C@](CCCCN3C(=O)c4ccccc4C3=O)(C2)OC2=C1C(=O)c1ccccc1C2=O`, which Potency is on record?
**A.** inactive

**Q.** With `C=CCn1c(SCC(=O)OCC)nc(C(F)(F)F)cc1=O` as the compound, how does the Potency read?
**A.** inactive

**Q.** With `CCCCCNCc1ccc(Br)cc1` as the compound, how does the Potency read?
**A.** inconclusive: 29.1 µM [inhibitor, single point]

**Q.** Which Potency does the source give for `COC(=O)c1cc(/C=C/c2ccccc2)on1` here?
**A.** inactive

**Q.** Which Potency does the source give for `COc1cccc(/C=N/NC(=O)CCCC(=O)Nc2ccc(Br)cc2)c1` here?
**A.** inactive

**Q.** Which Potency does the source give for `O/N=C/c1ccc2ccccc2n1` here?
**A.** inconclusive: 6.31 µM [activator, single point]

**Q.** With `CC(C)c1ccc(C(=O)CC2(O)C(=O)N(CCc3ccccc3)c3ccc(Cl)cc32)cc1` (stereo unspecified) as the compound, how does the Potency read?
**A.** inconclusive: 8.91 µM [inhibitor, partial curve, poor fit]

**Q.** With `CC1CCN(C2=NC(=O)/C(=C/c3cn(-c4ccccc4)nc3-c3cccc(S(=O)(=O)N(C)C)c3)S2)CC1` as the compound, how does the Potency read?
**A.** inconclusive: 20 µM [inhibitor, single point]

**Q.** With `Cc1cc2ccccn2c1C(=O)c1ccc([N+](=O)[O-])o1` as the compound, how does the Potency read?
**A.** inconclusive: 6.31 µM [inhibitor, full curve, poor fit]

**Q.** Which Potency does the source give for `CCOC(=O)c1cccc(Nc2ncnc3ccccc23)c1` here?
**A.** inconclusive: 14.1 µM [inhibitor, single point]

**Q.** For `Oc1ccc(-c2nccc(-c3ccc(Cl)cc3)n2)cc1`, which Potency is on record?
**A.** inconclusive: 6.31 µM [activator, single point]

**Q.** With `O=C(/C=C/c1ccc(O)c(O)c1)OCCc1ccccc1` as the compound, how does the Potency read?
**A.** inconclusive: 10 µM [inhibitor, full curve, poor fit]

**Q.** Which Potency does the source give for `CC(=O)Nc1ccccc1C(=O)C(=O)NCCc1ccccc1` here?
**A.** inconclusive: 7.94 µM [activator, partial curve, poor fit]

**Q.** For `Cn1c(SCc2ccccn2)nnc1-c1cnccn1`, which Potency is on record?
**A.** inconclusive: 5.8 µM [activator, partial curve]

**Q.** Which Potency does the source give for `Cc1ccc(C(=O)COC(=O)c2cccs2)cc1` here?
**A.** inconclusive: 9.2 µM [inhibitor, partial curve, poor fit]

**Q.** With `O=C(CSCc1ccc(Cl)cc1)NCc1ccccn1` as the compound, how does the Potency read?
**A.** inactive

**Q.** Which Potency does the source give for `Cc1cccc(NC(=O)Nc2ccc(C)c(C)c2)n1` here?
**A.** inconclusive: 631 nM [activator, partial curve, poor fit] and inconclusive: 3.16 µM [activator, single point]

**Q.** For `Brc1ccc(-c2noc(CCc3ccccc3)n2)cc1`, which Potency is on record?
**A.** inconclusive: 35.5 µM [activator, single point]

**Q.** With `Cc1cc(C(=O)CCl)c(C)n1-c1cccc([N+](=O)[O-])c1` as the compound, how does the Potency read?
**A.** active: 10 µM

**Q.** For `N#CC1(c2ccccc2)CCCN1C(=O)c1ccccc1Cl` (stereo unspecified), which Potency is on record?
**A.** inconclusive: 6.31 µM [inhibitor, single point]

**Q.** Which Potency does the source give for `CCCS(=O)(=O)c1nc(S(=O)(=O)c2ccc(C)cc2)c(NCCCN2CCCC2=O)s1` here?
**A.** inactive

**Q.** For `Cc1cc(N2CCN(C)CC2)nc2ccc(NC(=O)c3ccccc3F)cc12`, which Potency is on record?
**A.** inconclusive: 35.5 µM [inhibitor, single point]

**Q.** Which Potency does the source give for `N=C1SCC(=O)N1/N=C/c1ccccc1` here?
**A.** inactive

**Q.** Which Potency does the source give for `CC(=O)c1cc(F)c(N2CCN(C(=O)COc3ccc(F)cc3)CC2)cc1C` here?
**A.** inconclusive: 15.8 µM [inhibitor, partial curve, poor fit]

**Q.** With `CCc1ccc(OC(=O)c2cncc(Br)c2)cc1` as the compound, how does the Potency read?
**A.** inconclusive: 20 µM [activator, single point]

**Q.** For `CC(=O)Nc1ccc(S(=O)(=O)N2CCN(c3ccc(C)c(C)c3)CC2)cc1`, which Potency is on record?
**A.** inactive

**Q.** Which Potency does the source give for `Cc1ccc(S(=O)(=O)N2CCCOC2CNC(=O)C(=O)NCc2cccs2)cc1` (stereo unspecified) here?
**A.** inconclusive: 3.98 µM [inhibitor, full curve]

**Q.** Which Potency does the source give for `COc1ccc(C2(CNC(=O)c3cccc([N+](=O)[O-])c3)CCOCC2)cc1` here?
**A.** inactive

**Q.** Which Potency does the source give for `O=c1c2cccnc2n(Cc2ccc(Cl)cc2)c(=O)n1Cc1ccc(F)cc1` here?
**A.** inconclusive: 3.16 µM [inhibitor, full curve]

**Q.** For `COc1cc2c(cc1OC)CN(Cc1cc(OC)c(O)c(OC)c1)CC2`, which Potency is on record?
**A.** inactive

**Q.** With `Nn1c(SCc2ccccc2F)nnc1-c1ccccn1` as the compound, how does the Potency read?
**A.** inconclusive: 0.316 µM [activator, partial curve, poor fit]

**Q.** Which Potency does the source give for `O=C(c1ccc(-c2cccc(C(F)(F)F)c2)o1)N1CCOCC1` here?
**A.** inconclusive: 1.26 µM [activator, full curve, poor fit]

**Q.** With `C=CCN(CC=C)CCCOc1ccccc1C(=O)OC` as the compound, how does the Potency read?
**A.** inactive

**Q.** For `CCN1C(=O)[C@H]2[C@H]3[C@H](O)[C@H](O)C/C(=N\OCC[C@@H]4C=C[C@H](OC(C)=O)[C@@H](COC(C)=O)O4)[C@@H]3CC[C@H]2C1=O`, which Potency is on record?
**A.** inactive

**Q.** With `O=C(Nc1cccc(-c2nc3ccccc3o2)c1)c1cccnc1` as the compound, how does the Potency read?
**A.** inconclusive: 7.08 µM [inhibitor, partial curve, poor fit]

**Q.** Which Potency does the source give for `COC(=O)c1cccc(CN2C(=O)SC(Nc3ccccc3C)C2=O)c1` (stereo unspecified) here?
**A.** inactive

**Q.** Which Potency does the source give for `CCCCCCc1cc2cc(-c3nnc(-c4ccccc4OC)o3)c(=O)oc2cc1O` here?
**A.** inconclusive: 17.8 µM [inhibitor, partial curve, poor fit]

**Q.** For `CC1Cc2ccccc2N1C(=O)CSC1=NCCS1` (stereo unspecified), which Potency is on record?
**A.** inconclusive: 0.231 µM [inhibitor, single point]

**Q.** Which Potency does the source give for `COc1ccc(Cl)c(S(=O)(=O)N2CCCC2)c1` here?
**A.** inactive

**Q.** With `CSc1c(C#N)sc(=S)n1-c1ccc(C)cc1` as the compound, how does the Potency read?
**A.** inactive

**Q.** For `COc1ccc(OC)c([C@H]2/C(=C(\O)c3ccccc3)C(=O)C(=O)N2Cc2ccco2)c1`, which Potency is on record?
**A.** inactive

**Q.** For `COC(=O)Cc1ccc(NC(=S)Nc2cccc(C)n2)cc1`, which Potency is on record?
**A.** inconclusive: 35.5 µM [inhibitor, single point]

**Q.** With `Clc1ccc(CN2CCN(c3ncnc4scc(-c5cccs5)c34)CC2)cc1` as the compound, how does the Potency read?
**A.** inconclusive: 29.1 µM [inhibitor, single point]

**Q.** Which Potency does the source give for `Cc1cc(NC(=O)CSc2nnnn2-c2ccccc2C)no1` here?
**A.** inactive

**Q.** Which Potency does the source give for `CN(C(=O)CSc1nc2ccc(NC(=O)c3cccs3)cc2s1)c1ccccc1` here?
**A.** inactive

**Q.** For `CN(C(=S)Nc1ccc(Oc2ccccc2)cc1)c1ccc(O)cc1`, which Potency is on record?
**A.** inconclusive: 29.1 µM [inhibitor, single point]

**Q.** With `Cc1ccc2nc(/C(C#N)=C/c3ccc(-c4ccc(C(=O)OC(C)C)cc4)o3)[nH]c2c1` as the compound, how does the Potency read?
**A.** inconclusive: 3.55 µM [activator, partial curve, poor fit]

**Q.** For `C/C(=N\NC(=O)C(C)n1nc(C)c([N+](=O)[O-])c1C)c1ccccc1O` (stereo unspecified), which Potency is on record?
**A.** active: 9.2 µM

**Q.** For `CC(=O)Nc1ccc(NC(=O)C23CC4CC(C2)CC(n2cnc(Br)n2)(C4)C3)cc1`, which Potency is on record?
**A.** inactive

**Q.** Which Potency does the source give for `NNC(=O)COc1ccccc1F` here?
**A.** inconclusive: 4.47 µM [activator, full curve, poor fit]

**Q.** Which Potency does the source give for `CC(=O)c1ccc(OCc2cc(C(=O)N(C)Cc3ccon3)no2)cc1` here?
**A.** inactive

**Q.** Which Potency does the source give for `CCOc1cc2c3c(c1)C1(Nc4ccccc4S1)C(=O)N3C(C)(C)CC2C` (stereo unspecified) here?
**A.** inconclusive: 29.1 µM [inhibitor, single point]

**Q.** For `O=C1CN(C(=O)c2c(F)cccc2Cl)C(c2ccc(F)cc2)c2cc(Br)ccc2N1` (stereo unspecified), which Potency is on record?
**A.** inactive

**Q.** Which Potency does the source give for `Cn1c(=O)n(C)c2cc(N3CCOCC3)c(NS(=O)(=O)c3ccc(F)cc3)cc21` here?
**A.** inactive
